Results are given in words; binding and its absence hold for the method and conditions named. In cells and extracts the contact can be indirect. Some binding calls cover weakened binding; strength is not graded here.
Target: Yes-associated protein (YAP), Myc-tagged (UniProt P46937)
Experiment: co-IP; HEK293T cells transfected with HSP110-Flag alone or together with YAP-Myc for 48 h; lysates precipitated with anti-Myc, blotted with anti-Flag and anti-Myc

Sequences of proteins named here, by UniProt entry; tags and fusion partners are left off.
UniProt P46937: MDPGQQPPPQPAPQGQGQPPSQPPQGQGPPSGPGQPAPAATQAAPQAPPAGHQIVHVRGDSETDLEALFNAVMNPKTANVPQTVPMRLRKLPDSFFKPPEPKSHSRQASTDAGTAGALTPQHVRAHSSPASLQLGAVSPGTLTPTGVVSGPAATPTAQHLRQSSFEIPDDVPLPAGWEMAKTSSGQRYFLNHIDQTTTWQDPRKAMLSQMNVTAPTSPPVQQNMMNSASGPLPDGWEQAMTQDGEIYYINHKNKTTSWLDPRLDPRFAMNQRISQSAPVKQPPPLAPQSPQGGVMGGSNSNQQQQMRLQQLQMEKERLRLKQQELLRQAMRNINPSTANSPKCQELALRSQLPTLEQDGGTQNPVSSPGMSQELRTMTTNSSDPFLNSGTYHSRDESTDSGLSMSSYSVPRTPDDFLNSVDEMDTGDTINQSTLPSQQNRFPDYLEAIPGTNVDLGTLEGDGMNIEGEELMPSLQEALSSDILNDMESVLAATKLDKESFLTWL
UniProt Q92598: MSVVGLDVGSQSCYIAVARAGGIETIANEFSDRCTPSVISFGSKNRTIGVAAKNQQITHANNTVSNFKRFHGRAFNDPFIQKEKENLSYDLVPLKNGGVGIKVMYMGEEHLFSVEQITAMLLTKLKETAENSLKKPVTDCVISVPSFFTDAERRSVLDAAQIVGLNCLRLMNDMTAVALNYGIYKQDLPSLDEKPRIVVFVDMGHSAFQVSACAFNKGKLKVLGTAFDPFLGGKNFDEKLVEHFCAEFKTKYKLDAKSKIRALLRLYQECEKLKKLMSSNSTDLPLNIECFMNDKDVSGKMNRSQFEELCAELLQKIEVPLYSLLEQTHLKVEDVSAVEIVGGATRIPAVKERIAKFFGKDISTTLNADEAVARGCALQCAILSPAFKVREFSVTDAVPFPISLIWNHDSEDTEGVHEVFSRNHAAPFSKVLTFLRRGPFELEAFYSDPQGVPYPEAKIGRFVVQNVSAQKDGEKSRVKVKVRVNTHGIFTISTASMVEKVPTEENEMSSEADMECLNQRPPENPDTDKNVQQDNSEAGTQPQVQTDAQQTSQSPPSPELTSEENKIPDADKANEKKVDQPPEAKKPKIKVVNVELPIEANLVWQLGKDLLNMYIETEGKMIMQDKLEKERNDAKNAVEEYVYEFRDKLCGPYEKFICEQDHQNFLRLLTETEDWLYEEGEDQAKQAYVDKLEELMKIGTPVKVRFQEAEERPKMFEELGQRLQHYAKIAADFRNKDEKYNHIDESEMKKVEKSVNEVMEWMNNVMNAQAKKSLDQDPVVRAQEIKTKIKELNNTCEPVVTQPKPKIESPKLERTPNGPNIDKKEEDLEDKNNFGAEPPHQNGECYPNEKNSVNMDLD

## Heat shock protein-110 (HSP110), Flag-tagged (from UniProt Q92598 1-858)
  binding: binds

From article PMC9389662
